Experimental findings from the supplement of paper PMC12819154, “High-throughput peptide-centric local stability assay extends protein–ligand identification to membrane proteins, tissues and bacteria” (Nature Structural & Molecular Biology, 2025) are described below.

By UniProt entry, the sequences of proteins in these tests, tags left out. Where a name states a change or a piece, a line headed by the entry shows the natural chain unless it says otherwise.
UniProt Q5T6C5: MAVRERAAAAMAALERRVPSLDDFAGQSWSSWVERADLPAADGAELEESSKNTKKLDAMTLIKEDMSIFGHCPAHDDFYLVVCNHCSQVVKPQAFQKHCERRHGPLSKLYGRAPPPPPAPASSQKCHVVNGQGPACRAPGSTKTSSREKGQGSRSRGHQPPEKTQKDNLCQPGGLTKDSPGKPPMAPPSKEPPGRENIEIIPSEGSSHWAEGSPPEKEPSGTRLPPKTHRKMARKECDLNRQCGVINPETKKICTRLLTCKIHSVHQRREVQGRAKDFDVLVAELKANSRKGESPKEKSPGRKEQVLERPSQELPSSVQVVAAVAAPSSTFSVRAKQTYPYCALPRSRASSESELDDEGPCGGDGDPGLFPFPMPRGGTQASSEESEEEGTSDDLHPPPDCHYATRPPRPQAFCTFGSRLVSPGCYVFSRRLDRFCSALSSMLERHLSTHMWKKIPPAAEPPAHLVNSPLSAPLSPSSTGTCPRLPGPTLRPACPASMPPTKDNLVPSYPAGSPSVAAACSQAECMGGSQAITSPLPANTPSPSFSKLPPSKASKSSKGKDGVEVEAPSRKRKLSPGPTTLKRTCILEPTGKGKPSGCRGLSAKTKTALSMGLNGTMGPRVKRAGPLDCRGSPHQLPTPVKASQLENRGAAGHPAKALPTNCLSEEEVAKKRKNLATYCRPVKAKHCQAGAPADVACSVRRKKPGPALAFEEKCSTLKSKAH
UniProt Q58WW2: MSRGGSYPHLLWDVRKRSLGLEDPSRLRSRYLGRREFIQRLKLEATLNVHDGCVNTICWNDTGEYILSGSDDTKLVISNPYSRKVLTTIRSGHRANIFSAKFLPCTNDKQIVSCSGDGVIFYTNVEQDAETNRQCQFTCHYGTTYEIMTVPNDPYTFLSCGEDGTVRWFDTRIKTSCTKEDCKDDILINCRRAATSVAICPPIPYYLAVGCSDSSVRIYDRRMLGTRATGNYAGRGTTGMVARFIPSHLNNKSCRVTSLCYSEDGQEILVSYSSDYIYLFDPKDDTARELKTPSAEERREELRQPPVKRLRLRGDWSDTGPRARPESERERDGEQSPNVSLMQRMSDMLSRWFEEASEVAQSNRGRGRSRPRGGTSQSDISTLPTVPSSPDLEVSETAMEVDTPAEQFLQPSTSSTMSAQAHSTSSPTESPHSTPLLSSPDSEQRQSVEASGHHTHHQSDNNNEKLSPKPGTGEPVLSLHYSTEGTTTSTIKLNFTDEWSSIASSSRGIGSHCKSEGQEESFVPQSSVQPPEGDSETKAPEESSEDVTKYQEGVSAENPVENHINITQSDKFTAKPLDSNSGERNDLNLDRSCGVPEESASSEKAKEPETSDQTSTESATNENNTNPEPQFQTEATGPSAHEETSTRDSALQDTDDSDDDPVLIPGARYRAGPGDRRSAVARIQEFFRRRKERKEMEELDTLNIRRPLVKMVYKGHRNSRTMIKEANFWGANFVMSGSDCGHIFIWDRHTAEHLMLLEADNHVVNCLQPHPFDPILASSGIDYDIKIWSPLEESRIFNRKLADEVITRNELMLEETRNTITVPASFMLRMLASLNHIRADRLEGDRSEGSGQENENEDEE
UniProt Q53H54: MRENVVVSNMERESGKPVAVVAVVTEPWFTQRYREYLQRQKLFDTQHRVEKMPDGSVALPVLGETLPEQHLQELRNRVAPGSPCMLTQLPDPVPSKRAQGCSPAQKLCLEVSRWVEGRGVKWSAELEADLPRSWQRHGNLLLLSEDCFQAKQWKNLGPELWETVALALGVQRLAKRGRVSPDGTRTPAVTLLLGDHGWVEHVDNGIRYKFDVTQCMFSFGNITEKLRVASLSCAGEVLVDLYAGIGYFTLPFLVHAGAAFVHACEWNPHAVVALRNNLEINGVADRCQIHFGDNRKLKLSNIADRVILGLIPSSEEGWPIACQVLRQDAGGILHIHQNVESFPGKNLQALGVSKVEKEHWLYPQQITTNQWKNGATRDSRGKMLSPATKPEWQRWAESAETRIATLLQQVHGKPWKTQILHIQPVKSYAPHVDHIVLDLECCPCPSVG
UniProt Q5TYM5, whole entry: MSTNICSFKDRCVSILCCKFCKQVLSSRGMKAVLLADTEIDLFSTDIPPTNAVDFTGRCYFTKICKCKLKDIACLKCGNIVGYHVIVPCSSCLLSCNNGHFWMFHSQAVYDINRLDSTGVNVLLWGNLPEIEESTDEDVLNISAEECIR
UniProt Q5SW79: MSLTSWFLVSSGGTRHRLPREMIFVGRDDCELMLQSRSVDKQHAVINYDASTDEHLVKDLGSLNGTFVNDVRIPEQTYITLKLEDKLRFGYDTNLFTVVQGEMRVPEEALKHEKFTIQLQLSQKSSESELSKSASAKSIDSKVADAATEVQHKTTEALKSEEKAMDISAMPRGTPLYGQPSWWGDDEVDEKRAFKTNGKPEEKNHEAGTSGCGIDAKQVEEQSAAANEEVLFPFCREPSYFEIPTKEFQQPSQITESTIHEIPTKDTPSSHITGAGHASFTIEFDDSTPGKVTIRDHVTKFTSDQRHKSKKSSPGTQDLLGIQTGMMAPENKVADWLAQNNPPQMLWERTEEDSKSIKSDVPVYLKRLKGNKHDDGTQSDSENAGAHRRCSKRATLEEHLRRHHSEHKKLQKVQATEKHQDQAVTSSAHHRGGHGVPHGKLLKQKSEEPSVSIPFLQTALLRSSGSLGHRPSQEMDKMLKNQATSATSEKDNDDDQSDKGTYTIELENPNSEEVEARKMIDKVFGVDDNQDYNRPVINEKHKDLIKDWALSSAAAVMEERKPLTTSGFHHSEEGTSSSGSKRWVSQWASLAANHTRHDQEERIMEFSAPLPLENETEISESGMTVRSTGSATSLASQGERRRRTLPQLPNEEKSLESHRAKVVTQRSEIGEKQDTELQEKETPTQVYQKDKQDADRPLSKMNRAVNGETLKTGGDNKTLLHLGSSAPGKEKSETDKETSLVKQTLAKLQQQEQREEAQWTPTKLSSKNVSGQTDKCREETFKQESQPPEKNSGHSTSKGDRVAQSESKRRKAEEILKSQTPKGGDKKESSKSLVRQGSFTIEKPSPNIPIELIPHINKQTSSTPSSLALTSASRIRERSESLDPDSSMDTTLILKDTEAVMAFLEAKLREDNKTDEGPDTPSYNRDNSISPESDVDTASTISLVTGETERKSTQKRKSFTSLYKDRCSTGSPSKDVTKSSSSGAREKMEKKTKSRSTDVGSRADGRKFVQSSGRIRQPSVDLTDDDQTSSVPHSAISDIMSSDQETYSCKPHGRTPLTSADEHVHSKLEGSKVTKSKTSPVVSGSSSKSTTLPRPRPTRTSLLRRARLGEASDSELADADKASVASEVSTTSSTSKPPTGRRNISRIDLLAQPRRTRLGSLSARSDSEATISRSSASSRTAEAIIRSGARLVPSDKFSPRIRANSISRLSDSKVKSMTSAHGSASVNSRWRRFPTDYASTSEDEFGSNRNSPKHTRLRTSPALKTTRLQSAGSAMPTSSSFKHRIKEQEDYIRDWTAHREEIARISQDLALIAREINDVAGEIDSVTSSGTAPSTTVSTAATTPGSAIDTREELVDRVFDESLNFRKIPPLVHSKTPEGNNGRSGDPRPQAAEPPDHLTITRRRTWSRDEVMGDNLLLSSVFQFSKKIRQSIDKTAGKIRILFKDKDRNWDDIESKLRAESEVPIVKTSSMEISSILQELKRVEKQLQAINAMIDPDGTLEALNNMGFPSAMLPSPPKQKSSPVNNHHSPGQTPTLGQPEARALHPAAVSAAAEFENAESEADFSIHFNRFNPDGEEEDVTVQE
UniProt Q5JWF2, whole entry: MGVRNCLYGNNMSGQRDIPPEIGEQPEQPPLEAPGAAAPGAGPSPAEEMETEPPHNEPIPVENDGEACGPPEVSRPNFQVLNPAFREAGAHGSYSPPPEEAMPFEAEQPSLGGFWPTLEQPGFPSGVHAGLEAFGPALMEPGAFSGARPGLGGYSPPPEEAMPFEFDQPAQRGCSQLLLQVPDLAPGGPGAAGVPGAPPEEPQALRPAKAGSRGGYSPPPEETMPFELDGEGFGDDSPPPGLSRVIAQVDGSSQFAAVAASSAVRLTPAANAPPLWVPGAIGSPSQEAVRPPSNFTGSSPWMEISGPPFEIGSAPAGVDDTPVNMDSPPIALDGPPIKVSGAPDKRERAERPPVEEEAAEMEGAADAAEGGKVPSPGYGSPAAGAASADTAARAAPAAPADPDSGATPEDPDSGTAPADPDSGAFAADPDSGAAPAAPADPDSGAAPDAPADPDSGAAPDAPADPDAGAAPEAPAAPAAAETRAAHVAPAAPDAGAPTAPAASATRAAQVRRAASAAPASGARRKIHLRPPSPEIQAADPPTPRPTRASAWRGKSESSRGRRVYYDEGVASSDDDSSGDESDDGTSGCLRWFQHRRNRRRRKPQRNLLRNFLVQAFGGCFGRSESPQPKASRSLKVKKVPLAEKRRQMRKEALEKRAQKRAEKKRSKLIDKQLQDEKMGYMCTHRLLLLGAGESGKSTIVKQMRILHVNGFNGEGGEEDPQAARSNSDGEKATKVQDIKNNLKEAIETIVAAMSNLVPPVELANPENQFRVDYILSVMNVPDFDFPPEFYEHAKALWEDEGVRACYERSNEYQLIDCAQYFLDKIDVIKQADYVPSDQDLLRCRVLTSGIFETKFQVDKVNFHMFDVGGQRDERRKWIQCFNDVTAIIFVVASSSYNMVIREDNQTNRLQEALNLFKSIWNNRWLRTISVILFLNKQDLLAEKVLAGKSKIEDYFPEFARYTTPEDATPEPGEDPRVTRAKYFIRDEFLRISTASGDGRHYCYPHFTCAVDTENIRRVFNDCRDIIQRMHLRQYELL
UniProt Q5SW96: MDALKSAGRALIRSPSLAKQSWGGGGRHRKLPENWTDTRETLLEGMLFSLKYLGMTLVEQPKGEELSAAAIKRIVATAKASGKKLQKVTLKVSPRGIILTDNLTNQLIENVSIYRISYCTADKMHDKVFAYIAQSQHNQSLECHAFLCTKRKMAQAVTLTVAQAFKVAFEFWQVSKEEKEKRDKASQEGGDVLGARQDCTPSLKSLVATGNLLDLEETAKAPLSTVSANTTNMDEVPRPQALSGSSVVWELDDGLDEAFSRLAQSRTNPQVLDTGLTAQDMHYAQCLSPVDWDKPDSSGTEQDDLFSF
UniProt Q56NI9: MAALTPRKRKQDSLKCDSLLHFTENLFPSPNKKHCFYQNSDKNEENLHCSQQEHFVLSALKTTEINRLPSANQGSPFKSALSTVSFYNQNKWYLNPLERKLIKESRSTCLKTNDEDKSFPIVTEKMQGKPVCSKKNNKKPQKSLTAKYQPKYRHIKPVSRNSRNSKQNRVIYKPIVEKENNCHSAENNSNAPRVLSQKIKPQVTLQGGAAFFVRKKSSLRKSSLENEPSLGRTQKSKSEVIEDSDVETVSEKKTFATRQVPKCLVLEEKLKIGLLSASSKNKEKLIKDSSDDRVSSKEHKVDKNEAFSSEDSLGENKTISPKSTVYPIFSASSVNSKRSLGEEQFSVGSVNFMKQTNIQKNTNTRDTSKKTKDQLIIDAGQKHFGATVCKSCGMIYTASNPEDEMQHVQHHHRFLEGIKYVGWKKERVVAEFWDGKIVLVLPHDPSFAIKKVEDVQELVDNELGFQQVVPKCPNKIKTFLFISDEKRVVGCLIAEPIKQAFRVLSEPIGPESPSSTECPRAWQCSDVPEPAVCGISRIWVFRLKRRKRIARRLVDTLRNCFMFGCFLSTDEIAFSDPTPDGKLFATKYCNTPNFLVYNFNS
UniProt Q52LR7, whole entry: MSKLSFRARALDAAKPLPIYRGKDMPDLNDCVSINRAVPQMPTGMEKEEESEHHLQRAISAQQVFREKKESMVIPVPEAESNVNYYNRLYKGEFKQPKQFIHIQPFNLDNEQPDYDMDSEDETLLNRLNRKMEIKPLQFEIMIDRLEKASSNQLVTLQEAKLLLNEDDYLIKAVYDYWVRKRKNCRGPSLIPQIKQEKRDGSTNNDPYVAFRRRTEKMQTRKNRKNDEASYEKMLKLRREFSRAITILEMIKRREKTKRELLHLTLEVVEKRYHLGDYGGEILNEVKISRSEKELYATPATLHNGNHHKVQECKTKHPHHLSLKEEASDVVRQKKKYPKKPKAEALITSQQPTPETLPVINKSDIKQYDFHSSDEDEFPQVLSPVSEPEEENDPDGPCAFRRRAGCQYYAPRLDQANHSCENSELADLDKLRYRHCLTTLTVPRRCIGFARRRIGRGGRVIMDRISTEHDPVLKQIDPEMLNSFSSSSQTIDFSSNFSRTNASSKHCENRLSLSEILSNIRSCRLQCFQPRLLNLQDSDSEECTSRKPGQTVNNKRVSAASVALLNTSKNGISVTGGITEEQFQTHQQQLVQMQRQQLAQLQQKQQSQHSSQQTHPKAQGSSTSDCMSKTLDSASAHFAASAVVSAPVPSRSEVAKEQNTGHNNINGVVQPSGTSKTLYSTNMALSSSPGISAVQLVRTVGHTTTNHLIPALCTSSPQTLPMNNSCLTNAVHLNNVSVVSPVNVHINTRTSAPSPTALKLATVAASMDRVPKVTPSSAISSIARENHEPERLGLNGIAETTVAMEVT

The list shows a part of the results. Most values lie at the level of the controls, where differences are scatter.

Compound in this experiment: Cc1nc(Nc2ncc(C(=O)Nc3c(C)cccc3Cl)s2)cc(N2CCN(CCO)CC2)n1 [dasatinib]
As to the kind of experiment: log2 fold change of tryptic peptide abundance, ligand vs vehicle (limited proteolysis) (log2 ratio); higher = more trypsin-susceptible (destabilized). To be noted: ligand concentration: 5 uM; sample: K562 cleared lysate.
Consider “ATXN7L2 (peptide sequence: APPPPPAPASSQK, peptide start residue: 113) (UniProt Q5T6C5)”, for which the log2 fold change was determined as 0.348. Regarding “UBR4 (peptide sequence: DLDPEVFQR, peptide start residue: 2564) (UniProt Q5T4S7)”, the log2 fold change turned out to be 0.0907. As for “UniProt Q58WW2 (peptide sequence: GDWSDTGPR, peptide start residue: 314)”, the log2 fold change turned out to be 0.153. The value for “PAN3 (peptide sequence: KIQHSNIVTLR, peptide start residue: 542) (UniProt Q58A45)” was -0.305; that for “PAGE2B (peptide sequence: EGIMPTFDLTK, peptide start residue: 92) (UniProt Q5JRK9)” was 0.0683; that for “TRMT12 (peptide sequence: AQGCSPAQK, peptide start residue: 98) (UniProt Q53H54)” was 0.213. For “UniProt Q5TYM5 (peptide sequence: STNICSFKDR, peptide start residue: 2)”, the log2 fold change is -0.202. As to “UniProt Q4G0N8 (peptide sequence: KGKCMSLDTIK, peptide start residue: 555)”, the log2 fold change is -0.186. For the target “UniProt Q5HYM0 (peptide sequence: RQSDPSIR, peptide start residue: 489)”, the log2 fold change turned out to be 0.306. The value for “FGD3 (peptide sequence: LQALPVGPR, peptide start residue: 32) (UniProt Q5JSP0)” was 0.0989; that for “CEP162 (peptide sequence: GHPQENEENSK, peptide start residue: 325) (UniProt Q5TB80)” was -0.443; that for “TBCEL (peptide sequence: LDQTVAELKK, peptide start residue: 361) (UniProt Q5QJ74)” was -0.624. The value for “UniProt Q5T870 (peptide sequence: TQEQCQAK, peptide start residue: 21)” was -0.374; that for “CEP170 (peptide sequence: IPPLVHSK, peptide start residue: 1368) (UniProt Q5SW79)” was -0.502; that for “BCORL1 (peptide sequence: NGDPSTWVK, peptide start residue: 696) (UniProt Q5H9F3)” was 0.373. For “GNAS (peptide sequence: LQEALNLFK, peptide start residue: 909) (UniProt Q5JWF2)”, the log2 fold change was 0.305. The value for “FLYWCH1 (peptide sequence: SILGLGQARPLEFLR, peptide start residue: 261) (UniProt Q4VC44)” was 0.513. The value for “SNAP47 (peptide sequence: GEELTGLMAGSQK, peptide start residue: 164) (UniProt Q5SQN1)” was -0.292; that for “UniProt Q4G0M1 (peptide sequence: EFQLLLK, peptide start residue: 135)” was -0.0799.

Take “ZNF672 (peptide sequence: GFLESATLVR, peptide start residue: 235) (UniProt Q499Z4)”: the log2 fold change worked out at 0.722. As to “RABL3 (peptide sequence: EGNQIPGFPDR, peptide start residue: 212) (UniProt Q5HYI8)”, the log2 fold change amounted to 0.0726. The value for “RC3H1 (peptide sequence: GASCTFAHSQEELEK, peptide start residue: 431) (UniProt Q5TC82)” was 0.344. For the target “PAN2 (peptide sequence: VGETYHQR, peptide start residue: 874) (UniProt Q504Q3)”, the log2 fold change worked out at 0.501. For the target “WDR44 (peptide sequence: ETENTAYK, peptide start residue: 38) (UniProt Q5JSH3)”, the log2 fold change was -0.292. In the case of “UniProt Q5T7W7 (peptide sequence: FSYFPSYVDK, peptide start residue: 332)” it was -0.27; in that of “GON4L (peptide sequence: CCEEIQPHQWKPPIER, peptide start residue: 896) (UniProt Q3T8J9)”, 0.146; in that of “FKBP15 (peptide sequence: VTSLEEELTDLRVEK, peptide start residue: 722) (UniProt Q5T1M5)”, 0.135.

For the target “CEP55 (peptide sequence: QKCYNDLLASAK, peptide start residue: 234) (UniProt Q53EZ4)”, the log2 fold change was -0.4.

In the case of “CROCC (peptide sequence: QALLQAQLEEQLRDK, peptide start residue: 360) (UniProt Q5TZA2)”, the log2 fold change worked out at 0.154. Regarding “VPS26B (peptide sequence: KSMSHQAAIASQR, peptide start residue: 301) (UniProt Q4G0F5)”, the log2 fold change is -0.161.

Regarding “THEM4 (peptide sequence: LMKEEQMSQAQLFTR, peptide start residue: 99) (UniProt Q5T1C6)”, the log2 fold change stood at 0.126. In the case of “LDLRAP1 (peptide sequence: YLGMTLVEQPK, peptide start residue: 52) (UniProt Q5SW96)” it was 0.376; in that of “UniProt Q562F6 (peptide sequence: CTPFYFKEPSLR, peptide start residue: 1249)”, 0.486. The value for “ERMARD (peptide sequence: LEDNSETNACHSLITK, peptide start residue: 466) (UniProt Q5T6L9)” was -0.384; that for “FNBP1L (peptide sequence: MEIHKNEAWLSEVEGK, peptide start residue: 463) (UniProt Q5T0N5)” was 0.386; that for “ESCO2 (peptide sequence: IGLLSASSK, peptide start residue: 272) (UniProt Q56NI9)” was -0.199. In the case of “EPC2 (peptide sequence: QQLAQLQQK, peptide start residue: 596) (UniProt Q52LR7)” it was 0.73.
